These are yes or no findings as the source states them, for the method shown. Some binding calls cover weakened binding; strength is not graded here.
Biological target: Pma1, plasma membrane H+-ATPase (proton pump) of Candida glabrata (Candida glabrata (endogenous in CBS138)) (UniProt Q6FXU5)
Experiment: cryo-electron tomography; tomograms of vitrified crude plasma membranes from C. glabrata spheroplasts ruptured by hypotonic shock, in PBS; Talos Arctica 200 kV; particles assigned by size and morphology; untreated or caspofungin-treated spheroplasts

binding: binds
B1: Pma1, plasma membrane H+-ATPase (proton pump) of Candida glabrata (protein, UniProt Q6FXU5 1-902)
chain: MSDVESNNEKPPQDVYEDEEMSEDDDIDALIEELQSHHGMGDDDDSEDEGHHTGSARVVPEEYLQTDPSYGLTSDEVAHRRKKYGLNQMADERESMIVKFVMFFVGPIQFVMEAAAILAAGLSDWVDFGVICGLLMLNACVGFIQEFQAGSIVDELKKTLANVAVVIRDGQLVEVPANEVVPGDILQLEDGTIIPADGRLVTENCFLQVDQSAITGESLAVDKGYGDQTFSSSTVKRGEAFMVVTATGDNTFVGRAAALVNKASGGQGHFTEVLNGIGILLLVLVIVTLLGVWAACFYRTDNIVKILRFTLGITIIGVPVGLPAVVTTTMAVGAAYLAKKQAIVQKLSAIESLAGVEILCSDKTGTLTKNKLSLHEPYTVEGVSADDLMLTACLAASRKKKGLDAIDKAFLKSLINYPKAKDALTKYKVIEFHPFDPVSKKVTAVVESPEGERIVCVKGAPLFVLKTVEEDHPIPEDVHENYENKVAELASRGFRALGVARKRGEGHWEILGVMPCMDPPRDDTAETVNEARRLGLRVKMLTGDAVGIAKETCRQLGLGTNIYNAERLGLGGGGDMPGSELADFVENADGFAEVFPQHKYKVVEILQNRGYLVAMTGDGVNDAPSLKKADTGIAVEGASDAARSAADIVFLAPGLSAIIDALKTSRQIFHRMYSYVVYRIALSLHLELFLGLWIIILNHSLDIELIVFIAIFADVATLAIAYDNAPFSQTPVKWNLPRLWGMSIILGIVLAIGTWICLTTMFLPRGGIIQNFGSIDGVLFLQISLTENWLIFVTRAVGPFWSSIPSWQLAGAVFAVDIIATMFTLFGWFSQNWTDIVTVVKIYIWSIGVFCVLGGFYYIMSESVVFDRLMNGKPLKEEKSTRSVEDFLAAMQRVSTQHEKEN
